Compounds and concentrations:
SNS-032, 50 nM: CC(C)(C)c1cnc(CSc2cnc(NC(=O)C3CCNCC3)s2)o1
YM155, 2 nM: COCC[n+]1c2c(n(Cc3cnccn3)c1C)C(=O)c1ccccc1C2=O
cediranib, 2000 nM: COc1cc2c(Oc3ccc4[nH]c(C)cc4c3F)ncnc2cc1OCCCN1CCCC1
vatalanib, 10000 nM: Clc1ccc(Nc2nnc(Cc3ccncc3)c3ccccc23)cc1
bexarotene, 10000 nM: C=C(c1ccc(C(=O)O)cc1)c1cc2c(cc1C)C(C)(C)CCC2(C)C
lestaurtinib, 20 nM: C[C@]12O[C@H](C[C@]1(O)CO)n1c3ccccc3c3c4c(c5c6ccccc6n2c5c31)CNC4=O
L-779450, 1000 nM: Oc1cc(-c2nc(-c3ccccc3)[nH]c2-c2ccncc2)ccc1Cl
ENMD-2076, 200 nM: Cc1cc(Nc2cc(N3CCN(C)CC3)nc(/C=C/c3ccccc3)n2)n[nH]1
crizotinib, 1000 nM: C[C@@H](Oc1cc(-c2cnn(C3CCNCC3)c2)cnc1N)c1c(Cl)ccc(F)c1Cl

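Human melanoma cell lines in 1,536-well plates were treated with two drugs together for 72 h, then fixed, stained and imaged. Each value is the cleaved-PARP-positive fraction of nuclei relative to DMSO-treated wells, in %, so that 100 equals the control and higher values mean more apoptosis. Concentrations were fixed for each drug; these are the higher of two levels. No replicate spread is given; individual values may be noisy. Basal and induced levels differ widely between cell lines.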
Only some of the drugs and lines screened are listed, without regard to their results.
An entry leaves out what has no value listed here.
A dash means that no value is listed here.

Drugs	SK-MEL-2	G-361	MZ2-MEL	IST-MEL1	COLO 792	RPMI-7951	COLO 800	UACC-62	LOX IMVI	WM1716	A2058	MEL-HO
crizotinib + lestaurtinib	20.3	68.6	-	102	143	207	258	141	157	30.1	94.9	126
bexarotene + lestaurtinib	179	122	154	243	98.6	123	54.8	105	48.9	14.3	65.8	106
ENMD-2076 + L-779450	1100	201	63.4	91.4	196	346	37.5	650	271	131	277	92.1
crizotinib + bexarotene	223	154	188	35.1	117	114	127	217	66.3	111	147	216
L-779450 + vatalanib	636	117	65.5	76.6	206	99.5	191	441	199	187	153	443
YM155 + L-779450	1420	245	472	110	310	287	176	110	92.4	248	3020	116
YM155 + SNS-032	2230	159	1140	136	205	371	327	152	406	838	821	79.0
YM155 + ENMD-2076	184	89.6	404	214	304	122	352	267	220	43.1	741	180
cediranib + ENMD-2076	45.4	144	173	95.3	124	209	459	104	89.7	40.3	136	61.0
vatalanib + crizotinib	35.3	298	199	152	86.0	326	476	287	30.9	46.8	204	173
lestaurtinib + L-779450	1090	382	75.6	102	136	89.2	111	493	135	54.5	290	109
L-779450 + bexarotene	290	252	74.5	72.8	54.6	57.0	91.4	354	77.7	94.4	168	235
crizotinib + L-779450	1040	215	138	136	155	77.5	173	442	137	123	154	72.6
vatalanib + cediranib	65.0	83.8	73.0	430	98.3	229	109	166	60.2	95.0	149	76.7
vatalanib + YM155	171	226	524	63.5	192	224	39.7	181	343	213	309	80.5
ENMD-2076 + lestaurtinib	147	150	99.0	146	156	165	229	154	106	95.7	170	221
SNS-032 + cediranib	225	130	200	111	168	380	69.3	187	238	64.8	217	67.8
YM155 + crizotinib	349	94.5	-	216	212	118	216	197	293	158	812	92.6
crizotinib + ENMD-2076	81.1	119	125	73.7	60.9	108	196	244	26.0	92.1	388	275
bexarotene + vatalanib	109	195	149	50.1	44.7	43.9	56.3	244	59.6	69.2	110	70.7
SNS-032 + crizotinib	293	67.9	231	117	162	220	52.9	119	128	133	113	148
cediranib + YM155	219	55.1	406	253	178	237	155	154	33.4	130	764	73.7
L-779450 + cediranib	525	160	107	68.5	22.2	159	85.9	696	131	92.5	128	55.4
SNS-032 + ENMD-2076	357	89.9	354	42.6	101	310	228	155	111	220	129	137
vatalanib + lestaurtinib	139	87.6	157	60.4	185	65.8	104	143	139	19.3	154	59.9
lestaurtinib + cediranib	67.1	145	136	45.9	223	144	54.7	81.2	24.4	116	87.4	76.3
cediranib + crizotinib	147	43.2	113	75.1	115	97.8	26.1	195	56.3	54.7	103	200
bexarotene + cediranib	78.9	187	3620	175	43.6	125	57.6	96.1	93.6	152	74.8	66.2
ENMD-2076 + vatalanib	88.9	176	216	200	82.7	157	259	315	147	152	211	119
L-779450 + SNS-032	927	179	101	83.8	182	61.7	365	848	105	540	149	88.0
vatalanib + SNS-032	206	262	215	253	228	361	148	177	123	388	186	99.8
SNS-032 + bexarotene	157	96.5	78.3	33.6	104	86.4	116	122	102	90.7	91.8	79.5
bexarotene + ENMD-2076	184	106	-	99.6	107	97.5	133	50.7	63.9	41.9	102	117
bexarotene + YM155	134	109	3380	64.1	84.1	112	145	14.1	94.4	43.6	370	80.5
YM155 + lestaurtinib	210	112	425	231	238	68.5	119	178	46.4	105	871	57.5

For reference, 2 entries once more:

- YM155 + lestaurtinib | SK-MEL-2: 210; G-361: 112; MZ2-MEL: 425; IST-MEL1: 231; COLO 792: 238; RPMI-7951: 68.5; COLO 800: 119; UACC-62: 178; LOX IMVI: 46.4; WM1716: 105; A2058: 871; MEL-HO: 57.5
- SNS-032 + crizotinib | SK-MEL-2: 293; G-361: 67.9; MZ2-MEL: 231; IST-MEL1: 117; COLO 792: 162; RPMI-7951: 220; COLO 800: 52.9; UACC-62: 119; LOX IMVI: 128; WM1716: 133; A2058: 113; MEL-HO: 148

From a melanoma drug combination screen (doi:10.1371/journal.pone.0140310); values rounded.